The values that follow come from paper PMC11334517.

Protein sequences can lack the tags named with them.

The data set concerns the target T1, Cj1608 (CjCemR + Cj1509 of strain 81-116) (Campylobacter jejuni 81-116) (UniProt Q0P820).
T1 sequence (looked up): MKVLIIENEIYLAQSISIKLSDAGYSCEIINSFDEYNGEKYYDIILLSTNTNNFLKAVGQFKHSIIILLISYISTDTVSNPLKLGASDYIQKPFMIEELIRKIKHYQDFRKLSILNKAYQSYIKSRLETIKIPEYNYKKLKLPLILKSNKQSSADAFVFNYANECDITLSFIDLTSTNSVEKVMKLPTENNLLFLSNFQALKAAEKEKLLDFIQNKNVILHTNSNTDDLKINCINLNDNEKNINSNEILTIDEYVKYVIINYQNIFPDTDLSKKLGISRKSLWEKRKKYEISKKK
Put plainly: EMSA. To be noted: both labeled DNAs 5 nM each in the same reaction; 50 mM Tris-HCl pH 8.0, 100 mM NaCl, 0.2% Triton X-100; 20 min at 37 C (Cj1608) or 30 C (Abu0127); 4% PAGE in 0.5x TBE at about 10 C; recombinant protein; residues 1-295; label: FAM at 5' end of forward primer; probe letters rebuilt from the primers and the genome.

In the case of “CTTTATTCAGCGCTTATTTTAACAGCGTTATTTGAGGCTATTATTGTTATGAGTATGATTAAATTTCTTTCTAATTCTAAAAAATGAAAGTTACTTTTTTACTCAAAAAAGCAAACAAAATCTTAAAAATTTAATAATAAAAAAACTCATAATCGTCCTTTTTTGTTAGAATTAATAAAAGTAACAATAAAAGGAGCGAAAATGTCAAATTCCGTTACTATAACCGATAATAGAAATGGAAAAAGCTATGAATTTCCTATATATGACGGTACAACTGGGCCATTCGAAGCTATTCTTACTCC (double strand) [pgltA-FAM]”, the binding result is recorded as “binds”.
